# Measured values taken from PubChem BioAssay AID485318 (Broad Institute, 2010).
# Protein sequences, listed by entry. Tags and fused reporters are not part of them. Lines headed by an entry give the natural chain unless they say otherwise; changes in a name come on top.
# UniProt O15379: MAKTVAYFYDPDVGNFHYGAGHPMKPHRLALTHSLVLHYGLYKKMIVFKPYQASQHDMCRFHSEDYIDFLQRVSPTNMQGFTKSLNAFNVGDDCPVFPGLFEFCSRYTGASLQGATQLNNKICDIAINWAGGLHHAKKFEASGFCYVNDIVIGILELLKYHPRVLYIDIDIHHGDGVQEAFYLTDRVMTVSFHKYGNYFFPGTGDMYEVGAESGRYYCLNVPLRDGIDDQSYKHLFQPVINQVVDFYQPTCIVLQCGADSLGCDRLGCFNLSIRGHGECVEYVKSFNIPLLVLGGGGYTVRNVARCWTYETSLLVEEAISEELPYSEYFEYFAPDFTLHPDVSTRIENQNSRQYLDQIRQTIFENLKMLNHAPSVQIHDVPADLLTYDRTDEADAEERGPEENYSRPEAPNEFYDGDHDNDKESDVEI
# Fewer than 10 of roughly 1,400 compounds were called active.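 Rule for the calls: active = fluorescence-lowering compounds whose fitted half-maximal concentration is at or below ten times the highest valid dose tested; inconclusive = flat curve at 30 to 70% inhibition, or poor fit; inactive = the rest.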 The list shows a part of the results.
# Molecular target: Histone deacetylase 3 (Homo sapiens) (UniProt O15379)
# Assay: inhibition of human HDAC3 enzymatic activity – biochemical, fluorescence, cherry-picked samples, counter-screen for JMJD2C/GASC1 demethylase inhibitor project, dose response (AID 485318);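 note: enzyme preincubated with compound before substrate and trypsin were added; 0% = neutral control wells and -100% = SAHA positive control wells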
# Details: recombinant HDAC3, fluorogenic peptide/trypsin coupled; at 12 µM (top of the series)
row,SMILES,"activity change, negative = inhibition"
1,CCC(=O)N1c2ccc(S(=O)(=O)CCC(=O)NCCC3=CCCCC3)cc2CC1C (configuration not stated),inactive: -0.483%
2,COc1ccccc1N1CCN(C(=O)CSc2nc(C)cc(=O)[nH]2)CC1,inactive: 0.631%
3,O=C(Nc1cc(S(=O)(=O)N2CCOCC2)ccc1N1CCCC1)c1ccc(F)cc1,inactive: -0.0837%
4,Cc1cc2cc3c(cc2nc1SCC(=O)N1CCOCC1)OCO3,inactive: 0.249%
5,C[C@H]1CN([C@@H](C)CO)C(=O)c2cccc(NS(=O)(=O)c3ccc(F)cc3)c2O[C@H]1CN(C)S(=O)(=O)c1cn(C)cn1,inactive: -0.218%
6,C[C@@H]1O[C@@H](OC[C@H]2O[C@@H](Oc3cc(O)c4c(=O)cc(-c5ccc(O)c(O)c5)oc4c3)[C@H](O)[C@@H](O)[C@@H]2O)[C@H](O)[C@H](O)[C@H]1O,inactive: -1.04%
7,Cc1ccc(C2CC(c3cccc(Br)c3)Nc3nnnn32)cc1 (configuration not stated),inactive: -0.821%
8,COC(=O)[C@]1(C)N[C@H](CN(C)C(=O)NC(C)C)[C@@H]2C(=O)N(Cc3ccccc3)C(=O)[C@@H]21,inactive: 0.2%
9,C#CCOCCOCCOCCNc1nc(N2CCN(C(=O)[C@H](CCCN=C(N)N)n3cc(C(N)[C@@H](C)CC)nn3)CC2)nc(N2CCN(C(=O)[C@H](CCC(=O)O)n3cc([C@@H](N)[C@H](C)CC)nn3)CC2)n1 (some centres not stated),inactive: 0.208%
10,O=C1CC(=O)N(Cc2ccco2)C(=O)N1,inactive: -0.805%
11,CCOC(=O)CCCCCC(=O)Nc1ccc2c(c1)CC(=O)N([C@@H](C)CO)C[C@H](C)[C@@H](CN(C)C(=O)Nc1ccc3c(c1)OCO3)O2,inactive: -0.431%
12,COc1cc2c(cc1OC)C(COc1ccc(F)cc1)NCC2 (configuration not stated),inactive: -0.498%
13,C/C(=N\NC(=S)NCc1ccccc1)c1ccco1,inactive: 0.176%
14,Cc1ccc(NC(=O)CSc2nc3c(c(=O)[nH]2)CN(Cc2ccc(F)cc2)CC3)cc1C,inactive: -0.095%
15,Cn1c(SCC(=O)N2CCCC2=O)nnc1-c1ccccc1F,inactive: 0.346%
16,CCN(CC)C(=O)[C@H]1CC(CC(=O)NC/C=C(\C)CCC=C(C)C)C(=O)N2CCc3c([nH]c4ccccc34)[C@]12C (some centres not stated),inactive: -0.245%
17,COc1ccc(-c2csc(NNC3=NCCCCC3)n2)cc1,inactive: 0.716%
18,N#CC1=C(C2CC2)CC(c2ccccc2)C(C#N)=C1N (configuration not stated),inactive: 1.08%
19,Cc1cc(N(CN2CCCC2=O)C(=O)c2ccc(F)cc2)no1,inactive: -0.182%
20,CC[C@@H]1C=C(C(=O)O)[C@H](c2ccc(C)cc2)N1S(=O)(=O)c1ccc(C)cc1,inactive: -0.188%
21,Cc1ccc(OCCSc2nnc(-c3cccs3)n2C)cc1,inactive: -0.407%
22,Oc1ccc(Br)cc1/C=N/Nc1nc(N2CCCCC2)nc(N2CCOCC2)n1,inactive: 0.26%
23,Cc1ccc(S(=O)(=O)NCCC(=O)Oc2ccc3ccc(=O)oc3c2)cc1,inactive: -0.119%
24,C=CCn1c(O)c(N=Nc2ccccc2C)c2ccccc21,inactive: -0.553%
25,CC(C)(C)n1ncc2c(=O)n(Cc3ccccc3Br)cnc21,inactive: -0.00762%
26,CCOC(=O)N1CCN(C(=S)NC(=O)c2ccc(F)cc2)CC1,inactive: 0.544%

row,SMILES,"activity change, negative = inhibition"
1,COc1ccc(/C=C2/CC/C(=C\c3ccc(OC)c(OC)c3OC)C2=O)c(OC)c1OC,inactive: 0.948%
2,COc1ccc(/C=N/N=C2\CC3CCC2(C)C3(C)C)cc1O (configuration not stated),inactive: 0.124%
3,Cc1ccc(C)c(N2CCN(C(=O)Cn3ncc4c([nH]c5ccc(C)cc54)c3=O)CC2)c1,inactive: -0.141%
4,COc1cc(OC)cc(C(=O)Nc2ccc(-n3cnnn3)c(C)c2)c1,inactive: -0.279%
5,O=c1oc2ccccc2cc1-c1nc(-c2cccs2)cs1,inactive: 0.294%
6,Cc1c(Cl)c(-c2n[nH]c(=S)n2-c2ccc(F)cc2)nn1C,inactive: -0.658%
7,CC(C)Cn1c(N)c(C(=O)COC(=O)c2c(O)c(Cl)cc(Cl)c2Cl)c(=O)n(C)c1=O,inactive: 0.179%
8,OCc1csc(=Nc2ccccc2)n1-c1ccccc1,inactive: -0.375%
9,CS(=O)(=O)N(CC(=O)Nc1ccccc1C(=O)NCCc1ccccc1)c1ccc2c(c1)OCCO2,inactive: 0.133%
10,Clc1ccc(N=c2ssnc2Cl)nc1,inactive: 0.426%
11,CCC(C)(C)NC(=O)C(c1ccc(C)o1)N(Cc1cccs1)C(=O)Cn1nnc2ccccc21 (configuration not stated),inactive: -0.314%
12,Cc1nnc(SCC(=O)Nc2sccc2C(N)=O)n1Cc1ccccc1,inactive: 0.0899%
13,COC(=O)[C@]1(Cc2ccccc2)N[C@H](CN(C)S(=O)(=O)c2ccc(-c3ccccc3)cc2)[C@@H]2C(=O)N(C)C(=O)[C@@H]21,inactive: 0.468%
14,CCCCCCC(=O)N1CCN(c2cc3c(cc2F)c(=O)c(C(=O)O)cn3CC)CC1,inactive: 0.517%
15,CC(CC(=O)Nc1cc([N+](=O)[O-])ccc1Cl)c1ccccc1 (configuration not stated),inactive: 0.176%
16,CCOC(=O)c1c(S(=O)(=O)NCC(=O)Nc2cccc(C)c2C)c(C)n(C)c1C,inactive: 1.31%
17,CCN(c1ccc(NC(=O)CCNC(=O)c2ccco2)cc1)C(C)C,inactive: 0.0545%
18,O=C(Nc1nnc(-c2ccco2)o1)c1ccc(N2C(=O)CCC2=O)cc1,inactive: -0.548%
19,CC1CC(NC(=O)N(C)C)N(C)C(=O)N1 (configuration not stated),inactive: -0.63%
20,CC(=O)Nc1ccc(NC(=O)CSc2ncnn2-c2ccccc2)cc1,inactive: -0.219%
21,COc1ccc(OC)c(/C=N/NC(=O)CNC(=O)c2ccc(S(=O)(=O)N3CCOCC3)cc2)c1,inactive: 0.507%
22,CCC(=O)N1CCc2cc(Br)cc(S(=O)(=O)CC(=O)OC)c21,inactive: 0.319%
23,COc1ccc(OC)c(C2=NOC(C(=O)NCCN3CCOCC3)C2)c1 (configuration not stated),inactive: 0.208%
24,O=C(NN=C1CCCCCCCCCCC1)c1cccc(S(=O)(=O)N2CCOCC2)c1,inactive: 0.282%
25,COC(C/C=C\[C@H](O)[C@H](C)OCc1ccccc1)OC,inactive: 0.602%
26,OCc1ccc(-c2nn(Cc3ccccc3)c3ccccc23)o1,inactive: 1.34%

# Quoted from the listing:
# Entry for `O=C(Nc1nnc(-c2ccco2)o1)c1ccc(N2C(=O)CCC2=O)cc1` under activity change, negative = inhibition: inactive: -0.548%
# Entry for `CC(=O)Nc1ccc(NC(=O)CSc2ncnn2-c2ccccc2)cc1` under activity change, negative = inhibition: inactive: -0.219%
# Entry for `CC(CC(=O)Nc1cc([N+](=O)[O-])ccc1Cl)c1ccccc1` (configuration not stated) under activity change, negative = inhibition: inactive: 0.176%
